# The match of structure and compound is tentative.
# Protein sequences, listed by entry. Tags and fused reporters are not part of them.
# UniProt P30411, whole entry: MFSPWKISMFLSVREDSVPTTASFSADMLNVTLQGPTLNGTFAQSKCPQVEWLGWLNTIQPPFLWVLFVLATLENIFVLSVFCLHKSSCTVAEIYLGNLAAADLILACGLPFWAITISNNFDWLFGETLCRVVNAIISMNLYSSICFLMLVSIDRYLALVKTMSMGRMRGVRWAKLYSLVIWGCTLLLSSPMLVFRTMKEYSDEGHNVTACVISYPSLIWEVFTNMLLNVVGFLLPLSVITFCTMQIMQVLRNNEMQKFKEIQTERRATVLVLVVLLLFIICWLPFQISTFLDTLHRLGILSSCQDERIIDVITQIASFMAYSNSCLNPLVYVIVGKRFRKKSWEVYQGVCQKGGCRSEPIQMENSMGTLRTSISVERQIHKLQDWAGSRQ
# Target: hB2 receptor (Homo sapiens, UniProt P30411)
# Assay: In vitro Assay of hB2 Receptor Function using Calcium Flux
# Type: cell-based
# Conditions: read-out: Data (um), recombinant CHO cells, antagonist IC50 against agonist at EC80
smiles,measurement,value
Cc1ccc(S(=O)(=O)N2C=CNC(=O)[C@H]2CC(=O)NC2CCCCC2C(C)(C)C)cc1 (stereo partly shown),IC50,0.021 µM

# Source: patent publication US20090227601A1, “Bradykinin 1 Receptor Antagonists” (Amgen Inc., priority 2005, published 2009)
